Results of single-concentration screens

The chains behind the UniProt entries cited, without tags or fusion partners. Residues count along the entry.
UniProt Q4DA54, 1-478: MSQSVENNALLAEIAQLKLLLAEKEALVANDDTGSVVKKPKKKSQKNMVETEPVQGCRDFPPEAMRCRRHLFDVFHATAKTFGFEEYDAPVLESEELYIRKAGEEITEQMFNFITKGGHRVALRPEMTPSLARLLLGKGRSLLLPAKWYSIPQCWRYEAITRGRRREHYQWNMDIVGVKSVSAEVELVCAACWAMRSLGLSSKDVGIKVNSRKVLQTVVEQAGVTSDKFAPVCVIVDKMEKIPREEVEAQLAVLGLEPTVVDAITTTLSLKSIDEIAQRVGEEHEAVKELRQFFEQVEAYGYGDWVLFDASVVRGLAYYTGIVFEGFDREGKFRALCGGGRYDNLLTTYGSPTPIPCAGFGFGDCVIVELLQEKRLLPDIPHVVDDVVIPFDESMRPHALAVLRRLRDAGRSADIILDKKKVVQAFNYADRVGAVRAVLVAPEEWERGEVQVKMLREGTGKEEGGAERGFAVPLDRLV
UniProt Q8IDJ8, 1-583: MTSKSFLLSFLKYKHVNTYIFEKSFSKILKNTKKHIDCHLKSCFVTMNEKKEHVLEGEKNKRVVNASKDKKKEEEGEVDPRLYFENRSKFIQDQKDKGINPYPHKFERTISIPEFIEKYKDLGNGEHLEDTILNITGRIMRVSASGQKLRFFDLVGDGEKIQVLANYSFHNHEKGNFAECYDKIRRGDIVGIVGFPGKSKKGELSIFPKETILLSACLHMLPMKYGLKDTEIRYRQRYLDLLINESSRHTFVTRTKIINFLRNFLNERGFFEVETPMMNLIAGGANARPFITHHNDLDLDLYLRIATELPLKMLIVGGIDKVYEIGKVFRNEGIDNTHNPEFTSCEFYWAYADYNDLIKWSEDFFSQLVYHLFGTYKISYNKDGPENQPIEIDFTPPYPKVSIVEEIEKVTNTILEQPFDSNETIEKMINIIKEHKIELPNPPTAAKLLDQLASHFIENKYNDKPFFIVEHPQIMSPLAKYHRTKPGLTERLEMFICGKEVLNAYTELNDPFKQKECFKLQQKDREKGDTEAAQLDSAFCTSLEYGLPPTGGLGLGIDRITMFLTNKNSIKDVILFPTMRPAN

Each number is a percent effect as filed.
The record does not define 0% and 100%; most values in the screen are far below 50% and negative numbers occur (in some assays of this library far below -100).
Compounds were drawn at random from those tested, without regard to their results.

TcHisRS: 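Histidine-tRNA ligase, Trypanosoma cruzi CL Brener (UniProt Q4DA54). Enzyme assay of histidyl-tRNA synthetase; the read-out is not stated. Compounds at 30 µM. Higher reads as stronger inhibition (inferred: compounds with an IC50 in retests scored well above the rest). Of about 69,000 compounds tested this way, about 31 (0.045%) reached 50% or more in at least one test.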
PfKRS1: 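Lysine-tRNA ligase, Plasmodium falciparum 3D7 (UniProt Q8IDJ8). Enzyme assay of the cytosolic lysyl-tRNA synthetase in 384-well plates, read by luminescence. Concentration: 30 µM. Direction is inferred from only a few compounds that gave an IC50; most scored high, so higher reads as stronger inhibition. Of about 69,000 compounds tested this way, about 49 (0.071%) reached 50% or more in at least one test.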

Compound	TcHisRS	PfKRS1
O=C(NCCc1c[nH]c2ccccc12)C1(n2cnnn2)CCCCC1	12.2%	3.929%
Cc1csc(-c2cccc(NC(=O)NCC(C)(C)C(N)=O)c2)n1	5.946%	5.206%
Cc1ccc(-n2cc(C(=O)N3CCn4c(C)nnc4C3)nn2)cc1	4.02%	2.559%
FC(F)(F)C1CN(Cc2cnc3c(-c4ccccc4)cnn3c2)CCO1 (centres unmarked)	3.279%	3.619%
COc1ccccc1/C=C/CNCC1CCc2nncn2C1 (centres unmarked)	23.32%	5.086%
COc1ccc(C2CCN(C(=O)c3ncccc3OC(C)C)C2)cc1 (centres unmarked)	8.621%	8.202%
CCOCC1CN(C(=O)c2cccs2)Cc2cnn(CC3CC3)c21 (centres unmarked)	2.222%	6.624%
N#Cc1ccnc(N2CCN(C(=O)c3ccc4c(c3)CCO4)CC2)c1	5.366%	2.735%
Cc1ccc(S(C)(=O)=O)cc1C(=O)N1CCCC(n2cncn2)C1 (centres unmarked)	4.274%	-0.08039%
CCC(C)(C)NC(=O)CN1C=Nc2ccccc2S1(=O)=O	2.312%	0.7144%
CC(C)CC(NCc1cscn1)c1ccccn1 (centres unmarked)	-1.98%	-2.734%
CCn1c(CN2CCCC(O)(c3ccc(F)cc3)CC2)cnc1SC (centres unmarked)	1.916%	-0.4129%
CCc1cc(CNCc2ccccc2N(C)C2CCN(C)CC2)on1	-3.59%	4.726%
O=C(c1cscn1)N1CC[C@@H]2[C@@H]1CCN2c1ccccn1	3.448%	3.65%
Cc1ccc(C(NC(=O)Cn2cc(C3CC3)nn2)C2CC2)cc1 (centres unmarked)	2.703%	1.013%
Nc1ncnc2nc(C3CCN(C(=O)Cc4ccccc4)C3)ccc12 (centres unmarked)	5.747%	1.281%
CC1CCN(c2cc(-n3cnc(C(=O)N4CCSCC4)c3)ncn2)CC1	4.082%	3.739%
Cn1cc(CCNCc2cc(Br)c3c(c2)OCO3)cn1	6.471%	-0.05337%
Cc1cc(NC(=O)N2CCOC(C(N)=O)C2)ccc1Br (centres unmarked)	5.025%	4.601%
Cc1nc(CN2CCCC(NCc3ccc(C(N)=O)cc3)C2)no1 (centres unmarked)	2.924%	-0.6591%
O=C(CSc1ccc2c(c1)OCCO2)NS(=O)(=O)c1cccs1	0%	1.519%
CSc1ccc(NC(=O)NCC(O)C(C)C)cc1F (centres unmarked)	7.843%	0.8232%
CC(Cn1cccn1)NCc1csc2c1CCCC2 (centres unmarked)	5.464%	6.928%
c1nc2c(c(-c3ccsc3)n1)CCN(Cc1ccoc1)CC2	9.091%	2.902%
Cn1nc2c(cc1=O)CN(CC(=O)Nc1nncs1)CC2	5.291%	-0.3313%
c1cnc(-c2cnc(N3CCSCC3)nc2C2CC2)cn1	0.5464%	-4.016%
CC(C)NC(=O)CCNC(=O)c1cc(F)ccc1NS(C)(=O)=O	6.077%	-0.5992%
Cc1cccc(CN2C(=O)CO[C@@H]3CN(C4CCOCC4)C[C@H]32)c1	10.05%	-11.44%
O=C(NCC1CCN(CCc2ccccc2)C1)c1cc(Cl)c[nH]1 (centres unmarked)	12.87%	-1.703%
CN(C)c1ccc(C(=O)N(Cc2ccncc2)CC2CCCO2)nn1 (centres unmarked)	2.469%	7.345%
CSCCC(NC(=O)c1ccc2ccccc2n1)C(=O)NC(C)C (centres unmarked)	1.734%	5.729%
Cc1cc(Br)c2c(c1)C1(CC(=O)Nc3c1cnn3C(C)C)C(=O)N2 (centres unmarked)	1.754%	1.309%
O=C(c1csc(-c2ccccn2)n1)N1CCCC1Cn1cccn1 (centres unmarked)	1.734%	-0.6686%
Cc1ccc(S(=O)(=O)N2CCC(Oc3cccnn3)CC2)c(C)c1	7.143%	1.417%
CCOCC(=O)NCc1cc(C2CC2)n(C2CCCC2)n1	3.093%	3.044%
Cc1ccccc1OCC(O)CN1CCC(c2ccn[nH]2)CC1 (centres unmarked)	3.429%	0.7761%
CCN(Cc1ccncc1)C(=O)c1cc(C)c(C)c(S(N)(=O)=O)c1	5.844%	3.947%
CC1CN(C(=O)C2(c3cccc(F)c3)CCOCC2)CCO1 (centres unmarked)	2.174%	6.072%
Cn1cc(CNC2CCC(O)CC2)c(-c2cc3ccccc3o2)n1 (centres unmarked)	12.14%	-0.3159%
COc1c(C(=O)NCC2CCCO2)nnn1Cc1ccccc1 (centres unmarked)	4.348%	-1.496%
Cc1cc(C)cc(NC(=O)Cc2c(C)nc3c(c2C)c(=O)[nH]n3C)c1	10.2%	5.352%
COCCN1C(=O)CO[C@H]2CN(Cc3ccccc3OC)C[C@H]21	2.488%	7.141%
O=c1[nH]c2ncccc2n1C1CCNCC1	9.375%	1.895%
CCNC(=O)COc1ccccc1N1CCCC(C)C1 (centres unmarked)	3.911%	0.7704%
CN(C)c1cc(CNC(=O)c2ccc(Br)cc2F)ccn1	5.187%	-3.276%

Measurements from “University of Dundee, Small-Polar-MMV Screening Library” (2021), ChEMBL document CHEMBL3988442.